From paper PMC10576442 come the findings set out here.

Chains of the proteins cited; added tags and fusions are not shown.
UniProt Q13616: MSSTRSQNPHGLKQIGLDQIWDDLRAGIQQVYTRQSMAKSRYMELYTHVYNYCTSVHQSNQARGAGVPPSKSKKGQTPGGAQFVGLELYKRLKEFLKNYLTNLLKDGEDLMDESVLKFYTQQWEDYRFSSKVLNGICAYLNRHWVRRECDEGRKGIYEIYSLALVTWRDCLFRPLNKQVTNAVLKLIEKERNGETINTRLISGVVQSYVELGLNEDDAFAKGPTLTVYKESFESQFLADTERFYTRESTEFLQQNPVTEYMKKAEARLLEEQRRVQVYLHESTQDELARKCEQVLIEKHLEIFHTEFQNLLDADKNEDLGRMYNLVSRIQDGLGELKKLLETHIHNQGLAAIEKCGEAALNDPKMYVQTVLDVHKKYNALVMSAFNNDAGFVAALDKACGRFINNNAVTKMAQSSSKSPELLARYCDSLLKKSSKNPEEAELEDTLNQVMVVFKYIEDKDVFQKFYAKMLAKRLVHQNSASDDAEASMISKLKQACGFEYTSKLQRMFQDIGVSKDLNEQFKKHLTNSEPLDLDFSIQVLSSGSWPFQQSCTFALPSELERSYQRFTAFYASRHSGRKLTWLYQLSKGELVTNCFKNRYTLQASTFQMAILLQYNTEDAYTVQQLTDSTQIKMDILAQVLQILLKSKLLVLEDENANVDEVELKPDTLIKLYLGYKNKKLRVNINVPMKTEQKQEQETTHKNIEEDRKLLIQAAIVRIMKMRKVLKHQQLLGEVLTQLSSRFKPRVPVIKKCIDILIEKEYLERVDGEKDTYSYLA

This assay has as its target Cullin-1 (CUL1) (UniProt Q13616). In words: affinity purification with mass spectrometry; immunoprecipitation with CUL1 antibody from control and CAND1 knock-down cells, relative quantitative MS of F-box proteins (Figure 4G, Table S2).

No constants are given. Whether binding was seen depends on the method and setting. Binding seen in cells or lysates may run through a third protein. Here binding means that the protein was enriched with, or labelled near, the bait; the list need not be complete.

B1: F-box protein 11 (FBXO11) (protein, UniProt Q86XK2 1-927)
chain: MNSVRAANRRPRRVSRPRPVQQQQQQPPQQPPPQPPQQQPPQQQPPPPPQQQQQQQPPPPPPPPPPLPQERNNVGERDDDVPADMVAEESGPGAQNSPYQLRRKTLLPKRTACPTKNSMEGASTSTTENFGHRAKRARVSGKSQDLSAAPAEQYLQEKLPDEVVLKIFSYLLEQDLCRAACVCKRFSELANDPILWKRLYMEVFEYTRPMMHPEPGKFYQINPEEYEHPNPWKESFQQLYKGAHVKPGFAEHFYSNPARYKGRENMLYYDTIEDALGGVQEAHFDGLIFVHSGIYTDEWIYIESPITMIGAAPGKVADKVIIENTRDSTFVFMEGSEDAYVGYMTIRFNPDDKSAQHHNAHHCLEITVNCSPIIDHCIIRSTCTVGSAVCVSGQGACPTIKHCNISDCENVGLYITDHAQGIYEDNEISNNALAGIWVKNHGNPIIRRNHIHHGRDVGVFTFDHGMGYFESCNIHRNRIAGFEVKAYANPTVVRCEIHHGQTGGIYVHEKGRGQFIENKIYANNFAGVWITSNSDPTIRGNSIFNGNQGGVYIFGDGRGLIEGNDIYGNALAGIQIRTNSCPIVRHNKIHDGQHGGIYVHEKGQGVIEENEVYSNTLAGVWVTTGSTPVLRRNRIHSGKQVGVYFYDNGHGVLEDNDIYNHMYSGVQIRTGSNPKIRRNKIWGGQNGGILVYNSGLGCIEDNEIFDNAMAGVWIKTDSNPTLRRNKIHDGRDGGICIFNGGRGLLEENDIFRNAQAGVLISTNSHPILRKNRIFDGFAAGIEITNHATATLEGNQIFNNRFGGLFLASGVNVTMKDNKIMNNQDAIEKAVSRGQCLYKISSYTSYPMHDFYRCHTCNTTDRNAICVNCIKKCHQGHDVEFIRHDRFFCDCGAGTLSNPCTLAGEPTHDTDTLYDSAPPIESNTLQHN
Take B1: the binding result is on record as “binds”.
